Results: patent US12329823B2 (The Scripps Research Institute, priority 2021, dated 2025)
For at least one compound, name, drawing or mass did not settle the structure.

Chains of the proteins cited; added tags and fusions are not shown. Residues count along the entry.
UniProt P43220, 24-463: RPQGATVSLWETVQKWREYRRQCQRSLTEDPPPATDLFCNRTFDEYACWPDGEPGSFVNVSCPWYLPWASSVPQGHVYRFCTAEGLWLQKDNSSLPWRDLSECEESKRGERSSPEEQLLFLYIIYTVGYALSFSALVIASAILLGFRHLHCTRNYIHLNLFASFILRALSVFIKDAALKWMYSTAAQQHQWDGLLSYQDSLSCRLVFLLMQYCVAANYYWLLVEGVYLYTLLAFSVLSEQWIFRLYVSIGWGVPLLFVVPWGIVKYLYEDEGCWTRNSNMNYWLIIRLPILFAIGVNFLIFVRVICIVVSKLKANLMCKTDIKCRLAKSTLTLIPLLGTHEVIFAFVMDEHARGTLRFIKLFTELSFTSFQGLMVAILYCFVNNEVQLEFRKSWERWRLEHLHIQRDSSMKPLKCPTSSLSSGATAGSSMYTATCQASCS

Columns and labels:
[1] = biological target: T1, human GIPR (Homo sapiens, UniProt P48546); assay: In vitro receptor activation reporter assay (CRE-Luc, HEK293-GIPR-CRE cells; receptor-mediated cAMP synthesis); type: cell-based; settings: Table 7
T1 construct: expressed in transfected cells; host or cells: HEK293 (CRE-HEK293, HEK293-GIPR-CRE)
T1 sequence (P48546 22-466): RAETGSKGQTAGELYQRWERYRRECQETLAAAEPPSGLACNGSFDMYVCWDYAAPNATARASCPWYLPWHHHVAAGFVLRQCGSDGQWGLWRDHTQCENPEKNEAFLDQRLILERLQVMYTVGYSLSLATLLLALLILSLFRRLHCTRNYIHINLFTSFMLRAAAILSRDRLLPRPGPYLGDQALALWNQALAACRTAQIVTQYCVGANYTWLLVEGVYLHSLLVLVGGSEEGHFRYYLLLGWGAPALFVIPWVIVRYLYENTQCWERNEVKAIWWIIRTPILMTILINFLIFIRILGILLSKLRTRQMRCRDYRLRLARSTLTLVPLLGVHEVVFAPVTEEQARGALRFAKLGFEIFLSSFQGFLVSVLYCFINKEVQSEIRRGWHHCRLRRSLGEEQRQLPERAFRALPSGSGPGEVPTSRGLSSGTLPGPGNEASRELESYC

[2] = biological target: human GLP-1R (Homo sapiens, UniProt P43220); assay: In vitro receptor activation reporter assay (CRE-Luc, HEK293-GLP-1R-CRE cells; receptor-mediated cAMP synthesis); type: cell-based; parameters: expressed in transfected cells; host or cells: HEK293 (CRE-HEK293, HEK293-GLP-1R-CRE); settings: Table 7; read-out: EC50 GLP1R

**Q.** For CCCC[C@@H]1NC(=O)[C@H](C)NC(=O)[C@H](C)NC(=O)[C@H](CCC(N)=O)NC(=O)[C@H](CCCCN)NC(=O)[C@H](CC(=O)O)NC(=O)[C@@H](NC(=O)[C@H](Cc2ccc(O)cc2)NC(=O)[C@@H](NC(=O)[C@H](CO)NC(=O)[C@H](Cc2ccc(O)cc2)NC(=O)[C@H](CC(=O)O)NC(=O)[C@@H](CO)NC(=O)[C@@H](NC(=O)[C@H](Cc2ccccc2)NC(=O)[C@@H](NC(=O)CNC(=O)[C@H](CCC(=O)O)NC(=O)C(C)(C)NC(=O)[C@@H](N)Cc2ccc(O)cc2)[C@@H](C)O)[C@@H](C)O)[C@@H](C)CC)CCCCNC(=O)CN(C(=O)CCNC(=O)CCOCCOCCOCCNC(=O)CCCCCCCCCCCCCCCCC(=O)O)CC(=O)NCCCC[C@@H](C(=O)N[C@@H](Cc2ccccc2)C(=O)N[C@H](C(=O)N[C@@H](C)C(=O)N[C@@H](Cc2c[nH]c3ccccc23)C(=O)N[C@@H](CC(C)C)C(=O)N[C@@H](CC(C)C)C(=O)N[C@@H](C)C(=O)NCC(=O)NCC(=O)N2CCC[C@H]2C(=O)N[C@@H](CO)C(=O)N[C@@H](CO)C(=O)NCC(=O)N[C@@H](C)C(=O)N2CCC[C@H]2C(=O)N2CCC[C@H]2C(=O)N2CCC[C@H]2C(=O)N[C@@H](CO)C(N)=O)C(C)C)NC1=O [ZA-43 - K4, YAibEGT-FTsDY-SIYXD-KQAANle-XFVAW-LLAGG-PSSGA-PPPS-NH2 (where each X is K) (SEQ ID NO: 45)], which EC50 [1] is on record?
**A.** 11.3 nM

**Q.** What about the EC50 [2] of the same compound?
**A.** 1.32 nM

**Q.** With CCCC[C@@H]1NC(=O)[C@H](C)NC(=O)[C@H](C)NC(=O)[C@H](CCC(N)=O)NC(=O)[C@H](CCCCN)NC(=O)[C@H](CC(=O)O)NC(=O)[C@@H](NC(=O)[C@H](Cc2ccc(O)cc2)NC(=O)[C@@H](NC(=O)[C@H](CO)NC(=O)[C@H](Cc2ccc(O)cc2)NC(=O)[C@H](CC(=O)O)NC(=O)[C@@H](CO)NC(=O)[C@@H](NC(=O)[C@H](Cc2ccccc2)NC(=O)[C@@H](NC(=O)CNC(=O)[C@H](CCC(=O)O)NC(=O)C(C)(C)NC(=O)[C@@H](N)Cc2ccc(O)cc2)[C@@H](C)O)[C@@H](C)O)[C@@H](C)CC)CCCCNC(=O)CN(C(=O)CCNC(=O)CCOCCOCCNC(=O)CCOCCOCCNC(=O)CC[C@H](NC(=O)CCCCCCCCCCCCCCCCC(=O)O)C(=O)O)CC(=O)NCCCC[C@@H](C(=O)N[C@@H](Cc2ccccc2)C(=O)N[C@H](C(=O)N[C@@H](C)C(=O)N[C@@H](Cc2c[nH]c3ccccc23)C(=O)N[C@@H](CC(C)C)C(=O)N[C@@H](CC(C)C)C(=O)N[C@@H](C)C(=O)NCC(=O)NCC(=O)N2CCC[C@H]2C(=O)N[C@@H](CO)C(=O)N[C@@H](CO)C(=O)NCC(=O)N[C@@H](C)C(=O)N2CCC[C@H]2C(=O)N2CCC[C@H]2C(=O)N2CCC[C@H]2C(=O)N[C@@H](CO)C(N)=O)C(C)C)NC1=O [ZA-43 - K5, YAibEGT-FTsDY-SIYXD-KQAANle-XFVAW-LLAGG-PSSGA-PPPS-NH2 (where each X is K) (SEQ ID NO: 48)] as the compound, how does the EC50 [1] read?
**A.** 15.7 nM

**Q.** What about the EC50 [2] of the same compound?
**A.** 3.74 nM
